Screen size: about 360,000 compounds; about 1,700 (0.47%) were called active. Inconclusive means that the source gave no clear call. Such entries were picked first, then a sample of the others. The call rests on the fitted dose curve; in most records, active means well fitted inhibition curve with a large enough effect; inconclusive means small, poorly fitted or top-dose-only effect; inactive means no such curve, though single readings can be large or run the other way. Potencies of inconclusive entries are doubtful fits and often do not repeat.
target: Bifunctional 3'-5' exonuclease/ATP-dependent helicase WRN (Homo sapiens) (UniProt Q14191); assay: qHTS for Inhibitors of WRN Helicase; details: WRN helicase unwinding, fluorescent forked duplex, kinetic; activity change, negative = inhibition: at 114 µM (top of the series) unless noted; further: nearly all actives have a fitted effect of over 55% in size
How it was run: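 Fluorescence dequenching readout, ex 525 nm/em 598 nm, kinetic mode: forked duplex DNA (100 nM final) with adjacent fluorophore and quencher unwound by WRN (20 nM final) with 2 mM ATP. Compound preincubation 15 min, room temperature.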
On the % scale 0 is the no-effect control and ±100 the full control effect; potency means the concentration at half of the fitted maximal effect.

Protein sequences, listed by entry. Tags and fused reporters are not part of them.
UniProt Q14191, whole entry, looked up: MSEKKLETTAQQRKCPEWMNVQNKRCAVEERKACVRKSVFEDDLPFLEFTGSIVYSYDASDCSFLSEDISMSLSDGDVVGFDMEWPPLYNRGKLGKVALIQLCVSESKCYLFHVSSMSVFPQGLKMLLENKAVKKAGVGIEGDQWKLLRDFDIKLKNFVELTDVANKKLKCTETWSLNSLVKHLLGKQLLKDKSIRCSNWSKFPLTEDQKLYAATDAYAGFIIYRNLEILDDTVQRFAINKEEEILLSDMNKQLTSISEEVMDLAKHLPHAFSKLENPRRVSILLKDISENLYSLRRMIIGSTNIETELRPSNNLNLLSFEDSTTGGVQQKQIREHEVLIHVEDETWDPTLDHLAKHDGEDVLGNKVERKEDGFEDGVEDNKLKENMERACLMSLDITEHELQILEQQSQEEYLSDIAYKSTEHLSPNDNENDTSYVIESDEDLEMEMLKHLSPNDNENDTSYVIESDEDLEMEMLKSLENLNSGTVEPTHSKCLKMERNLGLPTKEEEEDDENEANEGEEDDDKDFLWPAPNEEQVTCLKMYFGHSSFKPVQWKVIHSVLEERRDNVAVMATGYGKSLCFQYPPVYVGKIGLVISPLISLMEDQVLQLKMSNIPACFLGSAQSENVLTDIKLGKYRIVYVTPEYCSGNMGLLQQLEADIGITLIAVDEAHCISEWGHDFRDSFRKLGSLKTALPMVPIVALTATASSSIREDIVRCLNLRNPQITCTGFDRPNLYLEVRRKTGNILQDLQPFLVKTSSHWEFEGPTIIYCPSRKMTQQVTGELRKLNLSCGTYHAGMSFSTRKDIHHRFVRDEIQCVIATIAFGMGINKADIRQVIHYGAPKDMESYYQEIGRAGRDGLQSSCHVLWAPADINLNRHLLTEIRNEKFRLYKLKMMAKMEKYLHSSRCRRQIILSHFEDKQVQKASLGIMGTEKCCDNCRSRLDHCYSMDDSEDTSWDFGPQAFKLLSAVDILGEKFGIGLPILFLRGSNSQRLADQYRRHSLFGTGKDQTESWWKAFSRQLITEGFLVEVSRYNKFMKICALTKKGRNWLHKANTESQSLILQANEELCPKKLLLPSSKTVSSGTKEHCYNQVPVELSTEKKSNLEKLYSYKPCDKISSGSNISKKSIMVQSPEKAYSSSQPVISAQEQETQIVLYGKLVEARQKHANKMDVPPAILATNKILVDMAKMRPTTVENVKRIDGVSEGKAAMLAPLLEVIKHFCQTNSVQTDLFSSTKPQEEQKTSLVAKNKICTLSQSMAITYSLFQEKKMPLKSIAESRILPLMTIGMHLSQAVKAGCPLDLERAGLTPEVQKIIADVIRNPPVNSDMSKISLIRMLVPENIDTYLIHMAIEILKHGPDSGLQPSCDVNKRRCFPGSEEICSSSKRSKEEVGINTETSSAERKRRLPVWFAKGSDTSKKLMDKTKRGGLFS

Compound	Potency	activity change, negative = inhibition
CCC(C)N(C)Cc1cccc(C2(O)CCN(S(=O)(=O)c3ccc(F)c(C)c3)CC2)c1 (stereo not given)	inconclusive: 20 µM [inhibitor, single point]	–
O=C(CSc1ccccn1)Nc1nc2ccccc2s1	–	inactive: -26.7% [at 57.1 µM]
CC1(C)N([O-])C2=C(c3ccccc3C2=O)[N+](=O)C1(C)C	inconclusive: 89.1 µM [inhibitor, single point]	–
CN1C(=O)C(Cl)(Cl)C(=O)c2ccccc21	inconclusive: 25.1 µM [inhibitor, partial curve]	–
COc1ccc(CCC(=O)NCc2ccco2)cc1	inconclusive: 50.1 µM [inhibitor, partial curve]	–
Cc1ccc(S(=O)(=O)Cc2ccc(C(=O)N3CCc4ccccc4C3)o2)cc1	inconclusive: 50.1 µM [inhibitor, partial curve]	–
O=C(O)c1cc(S(=O)(=O)Nc2cc(Cl)ccc2Oc2ccccc2)ccc1O	–	inactive: 2.08%
COc1ccccc1NC(=O)C(C(C)C)N1C(=O)c2ccccc2C1=O (stereo not given)	–	inactive: -3.65%
Cc1ccc2cc(C3CC(c4ccco4)=NN3C(=O)CCC(=O)O)c(Cl)nc2c1 (stereo not given)	–	inactive: -17.7%
Cc1nc2ccc(C(=O)Nc3ccc4nc[nH]c4c3)cc2[nH]1	inconclusive: 100 µM [inhibitor, single point]	–
OC[C@@H]1CN(Cc2ccc3c(c2)OCO3)C[C@H](n2cnc3c(NC4CCCC4)ncnc32)O1	–	inactive: 0.404%
CC(C)(C)NC(=O)C(c1cccc2ccccc12)n1c(=O)c(-c2ccco2)nc2ccccc21 (stereo not given)	–	inactive: -4.83%
Nc1cc(C(=O)OCC(=O)c2ccc(CC(=O)N3CCOCC3)s2)ccc1Cl	–	inactive: -28%
CC(CNC(=O)c1ccc(Br)o1)NC(=O)c1ccc(Br)o1 (stereo not given)	inconclusive: 79.4 µM [inhibitor, single point]	–
Nc1ccc(N2CCCCC2)c2nonc12	inconclusive: 63.1 µM [inhibitor, single point]	–
CC(=O)c1ccc(N2CCN(C(=O)C(=O)c3c(C)[nH]c4ccccc34)CC2)cc1	inconclusive: 39.8 µM [inhibitor, full curve, poor fit]	–
Cc1c(C(=O)O)cnc2c([N+](=O)[O-])cnn12	active: 79.4 µM	–
Cc1cc(O)c(C(=O)/C=C/c2ccc(C(C)C)cc2)c(=O)o1	–	inactive: -29.9%
Cc1c(C)n(C(=O)CSc2nc3ccccc3[nH]2)c2ccccc12	inconclusive: 26.7 µM [inhibitor, partial curve]	–
COc1ccc(O)c(/C=N/NC(=O)c2ccc(CSc3nc(C)cc(C)n3)cc2)c1	inconclusive: 31.6 µM [inhibitor, partial curve]	–

Laid out differently: entries from further up
Nc1ccc(N2CCCCC2)c2nonc12
  Potency: inconclusive: 63.1 µM [inhibitor, single point]
CC(=O)c1ccc(N2CCN(C(=O)C(=O)c3c(C)[nH]c4ccccc34)CC2)cc1
  Potency: inconclusive: 39.8 µM [inhibitor, full curve, poor fit]

Source: PubChem BioAssay AID651768 (National Center for Advancing Translational Sciences (NCATS), 2012)
